{"sequences": {"note": "By UniProt entry, the sequences of proteins in these tests, tags left out.", "UniProt P46937": "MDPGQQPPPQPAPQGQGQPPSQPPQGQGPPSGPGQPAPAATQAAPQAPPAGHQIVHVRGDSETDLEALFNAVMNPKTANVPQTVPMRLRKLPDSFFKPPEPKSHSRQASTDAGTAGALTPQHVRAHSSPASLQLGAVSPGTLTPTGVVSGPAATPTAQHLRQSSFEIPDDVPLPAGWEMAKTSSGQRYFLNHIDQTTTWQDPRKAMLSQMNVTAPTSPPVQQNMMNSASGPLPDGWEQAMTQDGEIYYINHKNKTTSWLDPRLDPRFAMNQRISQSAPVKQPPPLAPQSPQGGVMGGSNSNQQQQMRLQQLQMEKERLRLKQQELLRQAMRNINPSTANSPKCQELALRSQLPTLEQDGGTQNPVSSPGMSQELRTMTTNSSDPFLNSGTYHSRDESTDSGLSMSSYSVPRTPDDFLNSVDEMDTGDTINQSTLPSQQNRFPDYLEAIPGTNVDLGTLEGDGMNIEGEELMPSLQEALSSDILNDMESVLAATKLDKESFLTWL"}, "source": "paper PMC12120113", "target": "T1, Flag-VCPIP1 (valosin-containing protein-interacting protein 1), overexpressed in PANC-1 cells (UniProt Q96JH7)", "T1 sequence": "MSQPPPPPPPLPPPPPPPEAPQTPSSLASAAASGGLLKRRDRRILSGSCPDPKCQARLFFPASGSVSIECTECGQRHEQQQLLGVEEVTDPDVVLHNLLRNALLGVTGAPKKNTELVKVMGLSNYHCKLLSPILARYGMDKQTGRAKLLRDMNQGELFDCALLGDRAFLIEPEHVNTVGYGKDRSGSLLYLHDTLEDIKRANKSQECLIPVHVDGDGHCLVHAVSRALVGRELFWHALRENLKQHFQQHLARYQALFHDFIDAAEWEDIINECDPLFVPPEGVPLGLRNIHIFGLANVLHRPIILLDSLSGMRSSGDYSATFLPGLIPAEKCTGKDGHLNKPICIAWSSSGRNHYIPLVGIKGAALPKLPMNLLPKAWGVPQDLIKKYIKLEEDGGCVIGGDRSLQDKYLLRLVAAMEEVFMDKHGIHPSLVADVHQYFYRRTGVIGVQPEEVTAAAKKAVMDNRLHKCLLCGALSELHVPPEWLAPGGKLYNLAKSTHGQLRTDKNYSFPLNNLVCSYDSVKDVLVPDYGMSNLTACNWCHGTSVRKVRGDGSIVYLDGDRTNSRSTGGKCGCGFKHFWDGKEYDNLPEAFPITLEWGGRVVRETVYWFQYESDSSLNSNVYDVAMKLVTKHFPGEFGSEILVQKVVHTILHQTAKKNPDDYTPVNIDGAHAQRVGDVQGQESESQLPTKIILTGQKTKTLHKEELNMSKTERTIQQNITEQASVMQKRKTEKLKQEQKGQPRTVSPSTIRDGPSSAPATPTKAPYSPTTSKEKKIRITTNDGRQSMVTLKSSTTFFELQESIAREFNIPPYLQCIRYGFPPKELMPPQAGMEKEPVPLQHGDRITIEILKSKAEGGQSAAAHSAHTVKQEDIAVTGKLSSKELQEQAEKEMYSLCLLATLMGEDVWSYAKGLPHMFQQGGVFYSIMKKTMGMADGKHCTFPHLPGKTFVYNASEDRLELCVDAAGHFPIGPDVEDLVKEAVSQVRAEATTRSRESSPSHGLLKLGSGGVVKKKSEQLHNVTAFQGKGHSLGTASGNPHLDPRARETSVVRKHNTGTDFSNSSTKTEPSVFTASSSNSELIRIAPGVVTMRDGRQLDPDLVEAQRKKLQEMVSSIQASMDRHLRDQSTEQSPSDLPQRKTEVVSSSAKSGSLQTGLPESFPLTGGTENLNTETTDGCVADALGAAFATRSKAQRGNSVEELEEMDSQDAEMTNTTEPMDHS", "experiment": "affinity purification with mass spectrometry; Flag-VCPIP1 overexpressed in PANC-1 cells; lysate immunoprecipitated with anti-Flag antibody or isotype IgG; SDS-PAGE, Coomassie stain, band excised, trypsin digest, LC-MS/MS", "note": "Results are given in words; binding and its absence hold for the method and conditions named. Binding seen in cells or lysates may run through a third protein. A yes stands for co-enrichment or nearness to the bait. Other partners may have been found. Tags and fused reporters may be left off the sequences shown.", "data": [{"substance": "YAP, endogenous in PANC-1 cells (from UniProt P46937 1-504)", "values": [{"measurement": "binding", "value": "binds"}]}]}
